From US20220169628A1 (University of Florida Research Foundation, Incorporated, priority 2019, published 2022)

Tested on: human platelets
Experiment: Human platelet viability, MTS assay
Format: cell-based
Conditions: IC50 platelets / IC50 MOLT-4
Method: FIG. 2. depicts dose response curves of ABT-263 and Compound 53 in MOLT-4 T-ALL cells & human platelets determined by MTS assay.
Cancer cells from different tissue origins including acute lymphoblastic leukemia (MOLT4 and RS4; 11), small cell lung cancer (NCI-H146 or simply H146), and multiple myeloma (EJM and H929) were incubated with increasing concentrations of Examples 1-21 or ABT-263 for 72 h. Cell viability was measured by tetrazolium-based MTS assay. 5×10^4 to 1×10^5 suspension cells or 3×10^3 to 5×10^3 adherent cells were seeded and treated in 96-well plates for 72 h. The EC50 values of individual agents were calculated with GraphPad Prism.

Compound	Ratio Platelate/ MOLT-4
CC1(C)CCC(c2ccc(Cl)cc2)=C(CN2CCN(c3ccc(C(=O)NS(=O)(=O)c4ccc(N[C@H](CCN5CCOCC5)CSc5ccccc5)c(S(=O)(=O)C(F)(F)F)c4)cc3)CC2)C1 [ABT-263, reference compound]	0.9
Cc1ncsc1-c1ccc([C@H](C)NC(=O)[C@@H]2C[C@@H](O)CN2C(=O)[C@@H](NC(=O)CCCCCCCCC(=O)NCC2(C)CCC(c3ccc(Cl)cc3)=C(CN3CCN(c4ccc(C(=O)NS(=O)(=O)c5ccc(N[C@H](CCN6CCOCC6)CSc6ccccc6)c(S(=O)(=O)C(F)(F)F)c5)cc4)CC3)C2)C(C)(C)C)cc1 (stereo partly drawn) [Compound 53, N^1-((4′-chloro-4-methyl-6-((4-(4-(((4-(((R)-4-morpholino-1-(phenylthio)butan-2-yl)amino)-3-((trifluoromethyl)sulfonyl)phenyl)sulfonyl)carbamoyl)phenyl)piperazin-1-yl)methyl)-2,3,4,5-tetrahydro-[1,1′-biphenyl]-4-yl)methyl)-N^10—((S)-1-((2S,4R)-4-hydroxy-2-(((S)-1-(4-(4-methylthiazol-5-yl)phenyl)ethyl)carbamoyl)pyrrolidin-1-yl)-3,3-dimethyl-1-oxobutan-2-yl)decanediamide]	43
